# Measured values published in PubChem BioAssay AID1259415 (National Center for Advancing Translational Sciences (NCATS), 2018).
# Several values for one entry are separate records, joined by “and”; a condition that tells them apart may be missing. Identical values can stand only once. Screen size: about 410,000 compounds; about 18,000 (4.4%) were called active. Inconclusive means that the source gave no clear call. Such entries were picked first, then a sample of the others. Rule as the data show it: active = activity change below about -60%; inconclusive = no clear call, values can overlap the other calls; inactive = above about -39%.
# Test: qHTS Assay for inhibitors of the human cytomegalovirus (HCMV)
# Conditions: HFF cells, HCMV-luciferase reporter, 72 h; at 57.5 µM; stronger effect = lower value
# Method in brief: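 Steps: HFFs plated, 16 h 37C; compounds added; HCMV-luciferase added to MOI 1 PFU/cell; 72 h 37C; OneGlo reagent, 5 min room temperature; luminescence read, normalized to controls.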
# % is scaled to controls: 0 for no effect and ±100 for the full control effect.
row,Structure (SMILES),"activity change, negative = inhibition"
1,Cc1ccc(C2=CC(c3cccs3)n3nnnc3N2)cc1 (centres undefined),inactive: 154%
2,CCn1cc(C(=O)NCc2cccc(C(F)(F)F)c2)c(=O)c2ccc(C)nc21,active: -69.4%
3,Cc1ccc(S(=O)(=O)c2c(C(=O)c3ccccc3)cnc3cc4c(cc23)OCCO4)cc1,active: -99.2%
4,Cc1cc2ccccc2n1CCNC(=O)c1cc(C(F)(F)F)cc(C(F)(F)F)c1,inactive: 4.6%
5,CC1CCC(=NO)C(=NO)C1 (centres undefined),inactive: -36.4%
6,Cc1cc(C(C)(C)C)cc(C)c1C[n+]1ccc2ccccc2c1,active: -96.4%
7,COCCN(C(=O)COC(=O)c1cccs1)c1c(N)n(Cc2ccccc2)c(=O)[nH]c1=O,inactive: 6.56%
8,CCC(=Nc1ccc(OC)cc1OC)c1c(O)n(C)c(=O)n(C)c1=O,inactive: -25.4%
9,O=C(O)C1CC=CCC1C(=O)NCc1ccc(Cl)c(Cl)c1 (centres undefined),inconclusive: -41.8%
10,COc1ccc(-n2nc(C(=O)NCC(=O)N3CCOCC3)c3ccccc3c2=O)c(OC)c1,inactive: 22.7%
11,Cn1c(SCC(=O)NCCc2ccc(S(N)(=O)=O)cc2)nc2ccccc2c1=O,inconclusive: -57.3%
12,CCOc1cccc(C2c3[nH]c4ccccc4c3CCN2C(=O)c2ccccc2F)c1 (centres undefined),inconclusive: -52.2%
13,Cc1ccc(C(=O)NCCCCNC(=O)c2ccc(C)o2)o1,inconclusive: -46.8%
14,Cc1ccc(S(=O)(=O)N2CCOCC2)cc1NC(=O)COc1cccc(Oc2ccccc2)c1,inconclusive: -42.7%
15,COc1ccc(N2C(=O)CC(c3ccccc3)CC2=O)cc1,inconclusive: -59.7%
16,COc1cc(C(=O)N2CCC2(C)C(=O)O)cc(OC)c1OC (centres undefined),inactive: -13.2%
17,Cc1ccc(-n2nc3c(=O)n(CCCC(=O)NCc4ccccc4C)nc(C)c3c2C)cc1,inactive: -34.3% and inactive: -10.3%
18,COc1cc(C(=O)NCCOc2cc(C)cc(C)c2)c(Br)c(OC)c1OC,inactive: 46.5%
19,CNC(=O)c1cc2cc(Br)ccc2s1,inconclusive: -47%
20,COc1cccc(-n2c(/C=C\c3ccc(Cl)cc3)nc3ccccc3c2=O)c1,inconclusive: -52.6%
21,Nc1nc(SCC(=O)OCc2ccccc2)[nH]c(=O)c1NC(=O)c1ccco1,inconclusive: -40.8%
22,CCC(=O)Nc1nc(C)c(-c2csc(Nc3cccc(C(=O)O)c3)n2)s1,inactive: 28.2%

row,Structure (SMILES),"activity change, negative = inhibition"
1,O=C(Nc1ccc(Cl)cc1)Nc1nc(-c2ccccc2O)cs1,active: -65.6%
2,Cc1cccc2c1-c1sc(C(=O)Nc3cccc([N+](=O)[O-])c3C)cc1CO2,inactive: -14.3%
3,O=C(CN1C(=O)c2cccc3cccc1c23)N1CCc2ccccc2C1,inconclusive: -51.2%
4,COc1ccc(-c2ccc3ccccc3n2)cc1OC,inactive: 60.5%
5,O=C(Nc1ccncc1)Nc1ccccn1,inconclusive: -54.9%
6,Cc1ccc(S(=O)(=O)c2nnn3c2nc(NC(C)c2ccccc2)c2sccc23)cc1 (centres undefined),active: -70.8%
7,COc1ccc(-n2nc(C(=O)NCC(=O)NC(C)C)c3ccccc3c2=O)c(OC)c1,inactive: -16.7%
8,CC(C)(C)C(=O)N1CCN(S(=O)(=O)c2ccc3c(c2)OCCCO3)CC1,inconclusive: -51.7%
9,CC1(C(=O)NCc2cccc(C(F)(F)F)c2)CCN1Cc1ccc2ccccc2c1 (centres undefined),active: -72.1%
10,CC(NC(=O)c1ccc2c(c1)N(Cc1ccc(Cl)cc1)C(=O)c1ccccc1S2=O)c1ccccc1 (centres undefined),inactive: 23.4%
11,CCCCc1nc2ccccc2c(NC(=O)CN2CCN(C)CC2)c1CCC,inconclusive: -57.3%
12,c1ccc(Nc2c3c(nc4ccccc24)CCC3)cc1,inconclusive: -50.5%
13,CN(C)C(=S)SSC(=S)N(C)C,active: -98.5%
14,CC1Sc2ccc(S(=O)(=O)CCC(=O)N3CCCC3)cc2NC1=O (centres undefined),inconclusive: -48.7%
15,CCN(Cc1ccccc1)S(=O)(=O)c1csc(C(N)=O)c1,inconclusive: 0%
16,Cc1ccc(-c2csc(N/N=C/c3ccco3)n2)c(C)c1,inconclusive: -51.2%
17,O=C(CCl)Nc1cccc(S(=O)(=O)NC2=NCCCCC2)c1,active: -102%
18,Cn1ccc(C(=O)Oc2ccc(C(=O)Nc3ccc(F)cc3F)cc2)n1,inconclusive: -59.3%
19,CN(C(=O)c1ccccc1[N+](=O)[O-])c1ccccc1C(=O)NCc1ccccc1,inactive: 8.86%
20,Cc1cccc(OCc2nnc(SCC(=O)N(c3ccccc3)C3CCS(=O)(=O)C3)o2)c1 (centres undefined),inactive: -28.9%
21,COc1ccc(CN2CCN(C(=O)Cn3c(=O)oc4cc(Cl)ccc43)CC2)c(OC)c1OC,inconclusive: -50.4%
22,Cc1nn(-c2ccccc2)c(C)c1CN,inactive: -12.1%
